# From PubChem BioAssay (EPA / NIEHS)
# The chains behind the UniProt entries cited, without tags or fusion partners. Where a name states a change or a piece, a line headed by the entry shows the natural chain unless it says otherwise.
# UniProt P03372, whole entry, looked up: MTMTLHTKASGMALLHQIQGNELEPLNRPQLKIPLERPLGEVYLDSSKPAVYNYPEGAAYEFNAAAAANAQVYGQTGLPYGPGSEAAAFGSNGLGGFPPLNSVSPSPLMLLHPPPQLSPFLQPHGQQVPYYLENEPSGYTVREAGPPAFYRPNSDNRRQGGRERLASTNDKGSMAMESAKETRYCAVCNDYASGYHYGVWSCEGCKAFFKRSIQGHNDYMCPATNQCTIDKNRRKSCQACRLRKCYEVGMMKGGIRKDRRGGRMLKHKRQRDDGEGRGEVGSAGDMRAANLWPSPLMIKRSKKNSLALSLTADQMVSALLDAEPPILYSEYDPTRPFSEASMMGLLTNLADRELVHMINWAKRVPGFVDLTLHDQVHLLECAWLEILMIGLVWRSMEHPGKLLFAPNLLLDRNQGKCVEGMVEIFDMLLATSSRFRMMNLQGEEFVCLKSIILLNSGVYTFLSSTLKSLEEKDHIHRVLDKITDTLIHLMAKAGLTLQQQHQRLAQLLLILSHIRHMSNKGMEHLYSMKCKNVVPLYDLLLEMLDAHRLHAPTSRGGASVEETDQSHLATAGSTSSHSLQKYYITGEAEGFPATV
# UniProt Q92731, whole entry, looked up: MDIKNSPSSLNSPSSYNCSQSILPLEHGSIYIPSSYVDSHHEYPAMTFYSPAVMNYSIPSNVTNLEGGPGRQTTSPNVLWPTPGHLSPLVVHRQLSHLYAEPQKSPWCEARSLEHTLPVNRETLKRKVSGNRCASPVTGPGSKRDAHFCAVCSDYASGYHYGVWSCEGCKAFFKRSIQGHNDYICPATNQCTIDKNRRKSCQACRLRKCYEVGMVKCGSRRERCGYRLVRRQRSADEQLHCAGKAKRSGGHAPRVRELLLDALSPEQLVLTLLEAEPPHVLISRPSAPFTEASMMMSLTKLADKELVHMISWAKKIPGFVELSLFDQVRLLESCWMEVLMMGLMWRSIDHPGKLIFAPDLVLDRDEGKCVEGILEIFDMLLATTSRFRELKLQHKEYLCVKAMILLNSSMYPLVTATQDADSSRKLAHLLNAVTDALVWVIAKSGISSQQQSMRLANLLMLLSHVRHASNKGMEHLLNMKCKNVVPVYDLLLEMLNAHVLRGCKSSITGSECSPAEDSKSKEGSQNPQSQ
# UniProt Q96RI1: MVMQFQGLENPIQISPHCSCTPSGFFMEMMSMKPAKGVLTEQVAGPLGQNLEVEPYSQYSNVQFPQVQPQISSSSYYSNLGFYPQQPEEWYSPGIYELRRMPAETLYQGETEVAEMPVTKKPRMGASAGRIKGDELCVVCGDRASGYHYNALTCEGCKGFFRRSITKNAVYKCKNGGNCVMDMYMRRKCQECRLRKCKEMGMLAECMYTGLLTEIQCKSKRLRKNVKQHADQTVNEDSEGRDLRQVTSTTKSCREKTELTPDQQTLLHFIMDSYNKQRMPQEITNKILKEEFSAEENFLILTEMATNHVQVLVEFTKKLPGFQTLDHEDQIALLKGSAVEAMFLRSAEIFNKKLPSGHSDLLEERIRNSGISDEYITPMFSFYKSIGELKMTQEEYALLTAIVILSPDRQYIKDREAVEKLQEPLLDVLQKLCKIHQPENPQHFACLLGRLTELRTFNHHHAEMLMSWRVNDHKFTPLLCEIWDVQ
# UniProt P08684, whole entry, looked up: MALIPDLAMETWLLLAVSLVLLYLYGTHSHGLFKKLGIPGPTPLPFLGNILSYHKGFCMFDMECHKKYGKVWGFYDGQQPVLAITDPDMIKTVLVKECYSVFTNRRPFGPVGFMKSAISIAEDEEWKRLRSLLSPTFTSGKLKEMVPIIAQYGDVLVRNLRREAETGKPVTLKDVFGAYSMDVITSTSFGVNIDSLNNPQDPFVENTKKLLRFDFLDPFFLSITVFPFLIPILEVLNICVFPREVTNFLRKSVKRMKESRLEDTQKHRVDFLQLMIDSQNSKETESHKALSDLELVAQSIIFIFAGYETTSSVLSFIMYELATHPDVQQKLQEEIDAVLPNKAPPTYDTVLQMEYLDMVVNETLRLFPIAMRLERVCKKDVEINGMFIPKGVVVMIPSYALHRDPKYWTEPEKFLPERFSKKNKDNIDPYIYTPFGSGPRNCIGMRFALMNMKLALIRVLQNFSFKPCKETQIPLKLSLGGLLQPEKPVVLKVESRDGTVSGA
# UniProt P04406: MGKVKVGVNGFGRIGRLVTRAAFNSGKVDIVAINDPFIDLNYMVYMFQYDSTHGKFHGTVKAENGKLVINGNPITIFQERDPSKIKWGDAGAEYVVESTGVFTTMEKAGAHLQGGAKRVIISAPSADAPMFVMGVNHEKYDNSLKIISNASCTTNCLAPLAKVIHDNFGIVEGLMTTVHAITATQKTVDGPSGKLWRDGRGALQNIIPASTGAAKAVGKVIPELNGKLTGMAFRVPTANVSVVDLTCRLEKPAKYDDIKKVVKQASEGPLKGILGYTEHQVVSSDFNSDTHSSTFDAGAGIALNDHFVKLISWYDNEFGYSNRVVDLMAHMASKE
# UniProt P60484: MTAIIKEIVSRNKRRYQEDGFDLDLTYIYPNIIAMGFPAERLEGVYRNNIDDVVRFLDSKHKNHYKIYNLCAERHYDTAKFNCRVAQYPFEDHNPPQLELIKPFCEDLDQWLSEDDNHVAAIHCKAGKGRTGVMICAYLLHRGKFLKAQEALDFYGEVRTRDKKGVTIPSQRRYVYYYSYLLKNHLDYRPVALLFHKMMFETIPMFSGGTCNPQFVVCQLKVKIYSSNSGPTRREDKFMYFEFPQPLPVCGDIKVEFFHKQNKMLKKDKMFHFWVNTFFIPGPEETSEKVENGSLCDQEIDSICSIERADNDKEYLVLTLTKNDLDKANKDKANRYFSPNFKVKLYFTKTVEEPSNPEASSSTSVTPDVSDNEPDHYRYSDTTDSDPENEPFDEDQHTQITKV
# UniProt P10275: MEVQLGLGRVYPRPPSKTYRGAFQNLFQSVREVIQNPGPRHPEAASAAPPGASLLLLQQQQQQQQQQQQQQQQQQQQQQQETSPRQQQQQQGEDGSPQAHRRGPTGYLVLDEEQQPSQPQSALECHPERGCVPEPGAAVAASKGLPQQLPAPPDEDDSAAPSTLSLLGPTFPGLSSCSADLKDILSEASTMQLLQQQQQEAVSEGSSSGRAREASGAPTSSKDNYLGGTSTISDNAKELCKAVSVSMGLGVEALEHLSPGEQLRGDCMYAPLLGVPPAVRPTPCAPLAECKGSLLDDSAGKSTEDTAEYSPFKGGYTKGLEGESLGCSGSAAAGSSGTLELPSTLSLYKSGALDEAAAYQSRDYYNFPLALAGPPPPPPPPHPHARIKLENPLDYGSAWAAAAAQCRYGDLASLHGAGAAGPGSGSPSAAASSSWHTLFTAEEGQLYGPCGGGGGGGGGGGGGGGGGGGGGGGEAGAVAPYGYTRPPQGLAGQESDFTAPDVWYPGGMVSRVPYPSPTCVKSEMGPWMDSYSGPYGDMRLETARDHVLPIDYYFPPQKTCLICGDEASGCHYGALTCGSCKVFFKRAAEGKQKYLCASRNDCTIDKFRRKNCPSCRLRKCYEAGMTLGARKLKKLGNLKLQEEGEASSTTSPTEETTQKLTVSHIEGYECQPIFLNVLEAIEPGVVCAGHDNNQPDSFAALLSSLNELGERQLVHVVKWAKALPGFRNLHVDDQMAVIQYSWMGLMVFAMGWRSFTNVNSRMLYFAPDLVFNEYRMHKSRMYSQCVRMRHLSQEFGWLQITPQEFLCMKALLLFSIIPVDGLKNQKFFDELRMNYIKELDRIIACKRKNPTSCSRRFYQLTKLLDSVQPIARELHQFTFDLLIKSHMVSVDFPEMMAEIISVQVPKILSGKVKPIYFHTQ
# UniProt P19785, whole entry, looked up: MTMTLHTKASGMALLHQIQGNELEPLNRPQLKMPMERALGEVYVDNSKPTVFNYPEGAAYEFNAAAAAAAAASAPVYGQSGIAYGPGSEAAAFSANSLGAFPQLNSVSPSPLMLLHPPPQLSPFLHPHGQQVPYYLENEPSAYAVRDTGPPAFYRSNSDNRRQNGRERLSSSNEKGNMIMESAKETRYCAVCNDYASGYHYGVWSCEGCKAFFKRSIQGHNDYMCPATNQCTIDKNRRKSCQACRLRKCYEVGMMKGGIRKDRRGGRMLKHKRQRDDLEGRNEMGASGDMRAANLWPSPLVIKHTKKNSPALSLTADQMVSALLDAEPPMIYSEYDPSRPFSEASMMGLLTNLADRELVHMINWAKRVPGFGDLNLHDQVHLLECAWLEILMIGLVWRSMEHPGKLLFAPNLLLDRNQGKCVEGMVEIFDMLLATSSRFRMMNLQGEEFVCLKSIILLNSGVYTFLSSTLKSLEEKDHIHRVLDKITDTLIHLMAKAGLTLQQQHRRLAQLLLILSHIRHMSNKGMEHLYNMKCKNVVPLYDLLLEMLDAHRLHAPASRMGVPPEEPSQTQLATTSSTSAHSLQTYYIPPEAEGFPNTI
# Inconclusive results, whose numbers are uncertain, are shown with a selection of clear calls. For some assays here: Where the call is inconclusive, the potency comes from a doubtful curve fit. Active and inactive are the calls of the source. How the source made its calls: active means hit-call score of the fitted dose curve at least 0.9, where 1 is the maximum; inconclusive means response in the unintended direction; inactive means score below 0.9.
# Legend:
# [1] = biological target: Estrogen receptor (Homo sapiens) + Estrogen receptor beta (Homo sapiens) (UniProt P03372+Q92731); test: OT_ER_ERaERb_0480: Odyssey Thera (OT) 8-hour HEK293T Protein-Complementation Assay for Estrogen Receptor-alpha/-beta Heterodimer (AID 2283352)
# How it was run: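 Compound added to HEK293T cells carrying split-reporter-tagged ER-alpha and ER-beta LBDs, incubated 8 hours, then imaged by laser scanning cytometer. Signal rise in nucleus, or nucleus and cytoplasm, over vehicle was fitted in the positive direction.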
# [2] = biological target: Bile acid receptor (Homo sapiens) (UniProt Q96RI1); test: OT_FXR_FXRSRC1_1440: Odyssey Thera (OT) 24-hour HEK293T Protein-Complementation Assay for Farnesoid X receptor/SRC-1 Co-activator (AID 2283384)
# How it was run: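 Compounds are applied to human kidney HEK293T cells expressing bait and prey fused to reporter protein fragments; after 24 h, reconstituted reporter fluorescence is measured. Activity is fitted as signal gain over DMSO.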
# [3] = read-out: ABC Transporter (ABCB1), ABCB1 (gene 5243); test: CLD_ABCB1_6hr: CellzDirect (CLD) Gene Expression Assay for ABC Transporter (ABCB1) at 6 hours (AID 2283659);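 on outcome: hits raise ABCB1 transcript above the DMSO vehicle baseline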
# How it was run: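 Primary human hepatocytes (two donor preparations) dosed daily for two days with chemicals at multiple concentrations, 0.2% DMSO vehicle; harvested 6 h post-dose. ABCB1 mRNA induction quantified by qNPA chemiluminescence; gain-of-signal fitted versus DMSO.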
# [4] = read-out: xenobiotic metabolism (CYP1A2), CYP1A2 (gene 1544); test: CLD_CYP1A2_6hr: CellzDirect (CLD) Gene Expression Assay for xenobiotic metabolism (CYP1A2) at 6 hours (AID 2283663);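 further: potency is for induction meaning a rise in mRNA above DMSO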
# How it was run: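 Primary human hepatocytes from two donor preparations, dosed daily with multiple concentrations in 0.2% DMSO and harvested at 6 h. CYP1A2 mRNA induction measured by chemiluminescent qNPA, gain of signal fitted against DMSO; cytotoxicity flagged morphologically.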
# [5] = read-out: xenobiotic metabolism (CYP2C9), CYP2C9 (gene 1559); test: CLD_CYP2C9_6hr: CellzDirect (CLD) Gene Expression Assay for xenobiotic metabolism (CYP2C9) at 6 hours (AID 2283664)
# How it was run: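 Primary human hepatocytes dosed daily with test chemicals at multiple concentrations; harvested at 6 h. CYP2C9 mRNA induction measured by qNPA chemiluminescence. Gain of signal fitted against 0.2% DMSO vehicle; cytotoxicity annotated from phase-contrast morphology.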
# [6] = read-out: Cytochrome P450 3A4 (Homo sapiens) (UniProt P08684); test: CLD_CYP3A4_48hr: CellzDirect (CLD) Gene Expression Assay for xenobiotic metabolism (CYP3A4) at 48 hours (AID 2283698)
# How it was run: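 Primary human hepatocytes from two donor preparations dosed daily for two days with multiple chemical concentrations, 0.2% DMSO vehicle. CYP3A4 mRNA at 48 h by quantitative nuclease protection assay, chemiluminescence, positive fit versus DMSO; cytotoxicity flagged morphologically.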
# [7] = read-out: sulfotransferase (SULT2A), SULT2A1 (gene 6822); test: CLD_SULT2A_48hr: CellzDirect (CLD) Gene Expression Assay for sulfotransferase (SULT2A) at 48 hours (AID 2283710);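 further: hits raise SULT2A1 transcript above the 0.2% DMSO vehicle baseline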
# How it was run: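 Primary human hepatocytes (two donor preparations) dosed daily for two days with chemicals at multiple concentrations, vehicle 0.2% DMSO; SULT2A1 mRNA induction at 48 h by quantitative nuclease protection assay, chemiluminescent read-out, fitted for gain of signal versus DMSO.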
# [8] = ACEA_AR_agonist_AUC_viability: ACEA Biosciences xCELLigence Real-Time Cell Analysis on Androgen Receptor Agonism for Viability (AID 2283775);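 on AC50: viability read 80 hours after compound addition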
# How it was run: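 Real-time impedance tracking of 22Rv1 growth, readings every 5 min for 5 h then hourly; area-under-curve viability endpoint at 80 hours, relative to DMSO. Compounds at eight concentrations, 1:4 steps, top 100 uM, n = 2.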
# [9] = biological target: Bile acid receptor (Homo sapiens) (UniProt Q96RI1); test: OT_FXR_FXRSRC1_0480: Odyssey Thera (OT) 8-hour HEK293T Protein-Complementation Assay for Farnesoid X receptor/SRC-1 Co-activator (AID 2283383)
# How it was run: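 Human kidney HEK293T cells carried FXR/SRC-1 fragment-complementation constructs. Compounds were added and incubated 8 h. Reporter reassembly upon receptor–co-activator interaction was then quantified by fluorescence, with curves fitted in the positive direction relative to DMSO.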
# [10] = read-out: sulfotransferase (SULT2A), SULT2A1 (gene 6822); test: CLD_SULT2A_6hr: CellzDirect (CLD) Gene Expression Assay for sulfotransferase (SULT2A) at 6 hours (AID 2283669);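 further: hits raise transcript level above the DMSO vehicle baseline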
# How it was run: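 Primary human hepatocytes from two donor preparations were dosed daily with chemicals or 0.2% DMSO and harvested at 6 h. Transcript induction read by qNPA chemiluminescence, fitted for gain of signal relative to DMSO; morphology-based cytotoxicity annotated.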
# [11] = read-out: Glyceraldehyde-3-phosphate dehydrogenase (Homo sapiens) (UniProt P04406); test: CLD_GAPDH_6hr: CellzDirect (CLD) Gene Expression Assay for Baseline Control (Glyceraldehyde 3-phosphate dehydrogenase) at 6 hours (AID 2283681);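 on outcome: active means increased signal relative to DMSO vehicle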
# How it was run: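 Primary human hepatocytes from two donor preparations, dosed at multiple concentrations with 0.2% DMSO vehicle; GAPDH mRNA measured 6 h after dosing by chemiluminescent quantitative nuclease protection assay (qNPA) on denatured lysates. Serves as background control; cytotoxicity annotated by morphology.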
# [12] = read-out: HMG-CoA synthase (HMGCS2), HMGCS2 (gene 3158); test: CLD_HMGCS2_6hr: CellzDirect (CLD) Gene Expression Assay for HMG-CoA synthase (HMGCS2) at 6 hours (AID 2283682);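 further: actives raise HMGCS2 transcript above the 0.2% DMSO vehicle baseline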
# How it was run: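 Primary human hepatocytes dosed daily with fresh chemical, 0.2% DMSO vehicle; HMGCS2 mRNA measured at 6 h by qNPA chemiluminescence. Gain of signal fitted against DMSO; cytotoxicity flagged from phase-contrast morphology.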
# [13] = biological target: human Phosphatase and Tensin Homolog (PTEN), PTEN (gene 5728) (UniProt P60484); test: NVS_ENZ_hPTEN: NovaScreen (NVS) Enzymatic Assay for human Phosphatase and Tensin Homolog (PTEN) (AID 2283203)
# How it was run: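 Cell-free recombinant human PTEN with fluorescent substrate; product separated by electrophoretic mobility shift and read by fluorescence 1 h after dosing. Primary screen in duplicate at 25 uM, actives followed in concentration series versus DMSO.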
# [14] = Tanguay_ZF_120hpf_CIRC_legacy: (Legacy) Oregon State University Tanguay Lab 120 Hour Post-fertilization zebrafish Assay for Circulatory Malformation (AID 2283651)
# How it was run: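 Read-out: presence or absence of circulatory malformation at 120 hpf, scored by brightfield microscopy, fitted in the gain-of-signal direction against DMSO baseline. Wild-type 5D larvae were exposed from 6 hpf after enzymatic chorion removal.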
# [15] = Tanguay_ZF_120hpf_NC_legacy: (Legacy) Oregon State University Tanguay Lab 120 Hour Post-fertilization zebrafish Assay for Notochord and Tail Malformation (AID 2283656)
# How it was run: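 Dechorionated Tropical 5D wild-type zebrafish embryos, one per well from 6 hpf, statically exposed to 120 hpf at 28C in 0.64% DMSO final. Notochord distortion scored present/absent by brightfield; dead embryos excluded.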
# [16] = biological target: Nucleoli Translocation, AR (gene 367) (UniProt P10275); test: UPITT_HCI_U2OS_AR_TIF2_Nucleoli_Agonist: University of Pittsburgh U2OS Androgen Receptor-Transcriptional Intermediary Factor 2 (AR-TIF2) Agonism High Content Imaging Assay for Nucleoli Translocation (AID 2283998)
# How it was run: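 Readout is red (AR-RFP) fluorescence localized to nucleoli, measured by high-content imaging and analysed for increase relative to DMSO. Compound series spanned 0.195 to 50 uM final in 0.5% DMSO.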
# [17] = biological target: mouse Estrogen Receptor alpha (Era), Esr1 (gene 13982) (UniProt P19785); test: NVS_NR_mERa: NovaScreen (NVS) Nuclear Receptor Binding Assay for mouse Estrogen Receptor alpha (Era) (AID 2283378);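 further: hit means loss of bound radioligand signal relative to DMSO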
# How it was run: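 Extracted mouse Era incubated with tritiated or iodinated radioligand plus test chemical, 18 h. Bound fraction separated on filters, counted by scintillation. DMSO = negative control/baseline; duplicate single-point at 25 uM, then concentration-response follow-up.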
# [18] = STM_H9_OrnCyssISnorm_ratio: Stemina devTOX quickPredict H9 human embryonic stem cell (hESC)-based Assay for Ornithine (ORN):Cystine (CYSS) Ratio (AID 2283714)
# How it was run: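 Undifferentiated H9 hESCs exposed 72 h, media and compound replaced every 24 h; final 24-h conditioned media deproteinized and analysed by UPLC-HRMS against C13 spike-ins. Value is the internal-standard-normalized ORN/CYSS ratio versus 0.1% DMSO.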
# [19] = biological target: Ratio of Nucleoli Translocation and Cytoplasm, AR (gene 367) (UniProt P10275); test: UPITT_HCI_U2OS_AR_TIF2_Nucleoli_Cytoplasm_Ratio_Antagonist: University of Pittsburgh U2OS Androgen Receptor-Transcriptional Intermediary Factor 2 (AR-TIF2) Antagonism High Content Imaging Assay for Ratio of Nucleoli Translocation and Cytoplasm (AID 2283999);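 further: antagonists lower the DHT-driven ratio of nucleolar to cytoplasmic red signal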
# How it was run: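 Human osteosarcoma U2OS line, AR fused to RFP, coactivator TIF2 fused to GFP. Cpds 20 uM final, 0.2% DMSO (screen); 0.195–50 uM final, 0.5% DMSO (CRC). Endpoint: nucleoli/cytoplasm red signal ratio, DHT as baseline, loss-of-signal antagonist mode.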
compound,measurement,setting,value
COC(=O)N(OC)c1ccccc1COc1ccn(-c2ccc(Cl)cc2)n1,outcome,[1],inactive
same,AC50,[2],active: 1.45 µM
same,AC50,[3],inconclusive: 20 µM
same,AC50,[4],inconclusive: 0.0004 µM
same,outcome,[5],inactive
same,AC50,[6],inconclusive: 2 µM
same,AC50,[7],active: 9.28 µM
same,AC50,[8],active: 25.9 µM
Cc1cc(C)nc(NC(=O)NS(=O)(=O)c2ccccc2C(=O)OC2COC2)n1,AC50,[3],inconclusive: 20 µM
same,AC50,[4],inconclusive: 0.00334 µM
same,outcome,[5],inactive
same,AC50,[6],inconclusive: 0.00637 µM
CN(C)c1ccccc1,outcome,[9],inactive
COc1cc(OC)nc(Sc2cccc(Cl)c2C(=O)O)n1,AC50,[4],inconclusive: 20 µM
same,AC50,[10],inconclusive: 20 µM
same,outcome,[11],inactive
same,outcome,[12],inactive
Brc1c(Br)c(Br)c(Oc2c(Br)c(Br)c(Br)c(Br)c2Br)c(Br)c1Br,AC50,[13],inconclusive: 0.105 µM
ClC1=C(Cl)C2(Cl)C3C(Cl)C(Cl)CC3C1(Cl)C2(Cl)Cl (configuration not stated),AC50,[1],inconclusive: 87.6 µM
same,AC50,[2],inconclusive: 84.8 µM
same,AC50,[14],inconclusive: 1.44 µM
same,AC50,[15],inconclusive: 1.91 µM
same,outcome,[16],inactive
[F][Sn]([c]1ccccc1)([c]1ccccc1)[c]1ccccc1,AC50,[17],inconclusive: 13 µM
O=[N+]([O-])c1cc(C(F)(F)F)c(Cl)c([N+](=O)[O-])c1Cl,outcome,[17],inactive
Clc1cccc(C(Cl)(Cl)Cl)n1,outcome,[1],inactive
same,outcome,[9],inactive
same,outcome,[2],inactive
same,outcome,[14],inactive
same,outcome,[3],inactive
same,AC50,[5],inconclusive: 20 µM
same,outcome,[11],inactive
same,outcome,[7],inactive
same,AC50,[18],inconclusive: 50 µM
same,outcome,[16],inactive
same,AC50,[19],inconclusive: 50 µM
c1cc2ccc3cccc4ccc(c1)c2c34,outcome,[2],inactive
same,outcome,[16],inactive
same,outcome,[19],inactive
c1ccc2c(c1)Nc1ccccc1S2,outcome,[1],inactive
same,AC50,[17],inconclusive: 25 µM
CCCCOCC1CO1 (configuration not stated),AC50,[17],inconclusive: 25 µM
same,AC50,[9],inconclusive: 50 µM
same,AC50,[2],inconclusive: 50 µM
O=c1[nH]c(=O)n(Cl)c(=O)n1Cl,outcome,[8],inactive
[O-][Cl+2]([O-])O,outcome,[2],inactive
O=C(NCNC(=O)NC1C(=O)NC(=O)N1CO)NC1C(=O)NC(=O)N1CO (configuration not stated),outcome,[9],inactive
same,outcome,[8],inactive
same,AC50,[19],active: 50 µM
CC(COc1ccc(Oc2ccccc2)cc1)Oc1ccccn1 (configuration not stated),AC50,[2],active: 7.29 µM
same,AC50,[14],inconclusive: 15.7 µM
same,AC50,[3],inconclusive: 20 µM
same,AC50,[11],inconclusive: 20 µM
same,AC50,[18],inconclusive: 0.00837 µM
same,AC50,[16],inconclusive: 2.57 µM
same,outcome,[19],inactive
CNC(=O)/C=C(\C)OP(=O)(OC)OC,AC50,[9],inconclusive: 50 µM
same,AC50,[11],inconclusive: 20 µM
same,AC50,[8],inconclusive: 0.0237 µM
Nc1ccc(Cl)cc1N,AC50,[2],active: 33.8 µM
same,AC50,[15],inconclusive: 0.0153 µM
same,AC50,[8],inconclusive: 10.2 µM

# Reprinted at random: 2 records from the list.
compound,measurement,setting,value
[O-][Cl+2]([O-])O,outcome,[2],inactive
O=C(NCNC(=O)NC1C(=O)NC(=O)N1CO)NC1C(=O)NC(=O)N1CO (configuration not stated),outcome,[9],inactive
